# Assay results taken from paper PMC6925144, “A prospective compound screening contest identified broader inhibitors for Sirtuin 1” (Scientific Reports, 2019).
# Sequences of proteins named here, by UniProt entry; tags and fusion partners are left off. Residues count along the entry.
# UniProt Q96EB6, 2-747 limits assumed: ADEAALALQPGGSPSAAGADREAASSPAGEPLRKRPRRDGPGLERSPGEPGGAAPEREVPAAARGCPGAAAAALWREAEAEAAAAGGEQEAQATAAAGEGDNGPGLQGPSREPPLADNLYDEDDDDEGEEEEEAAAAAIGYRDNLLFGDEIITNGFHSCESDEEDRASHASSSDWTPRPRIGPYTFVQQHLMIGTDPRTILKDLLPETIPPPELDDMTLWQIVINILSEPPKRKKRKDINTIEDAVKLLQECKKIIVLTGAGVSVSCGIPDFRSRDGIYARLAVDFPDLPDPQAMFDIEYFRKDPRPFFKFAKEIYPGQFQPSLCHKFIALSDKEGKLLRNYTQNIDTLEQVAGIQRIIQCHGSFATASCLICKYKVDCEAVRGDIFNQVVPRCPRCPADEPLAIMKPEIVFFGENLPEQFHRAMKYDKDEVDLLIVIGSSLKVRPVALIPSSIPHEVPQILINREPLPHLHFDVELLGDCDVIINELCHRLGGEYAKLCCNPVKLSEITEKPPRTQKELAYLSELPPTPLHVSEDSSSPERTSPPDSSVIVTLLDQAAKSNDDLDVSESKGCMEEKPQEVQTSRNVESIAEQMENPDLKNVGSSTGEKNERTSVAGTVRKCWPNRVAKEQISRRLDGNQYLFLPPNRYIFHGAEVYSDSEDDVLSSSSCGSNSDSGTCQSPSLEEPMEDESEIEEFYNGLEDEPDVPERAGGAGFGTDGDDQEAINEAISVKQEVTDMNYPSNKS
# Whole data set: some 3,200 compounds, median “TSA(with NAD+) / Primary screening (TSA) / delta Tm (K)” near -0.04, cut for the highest 2% near 0.37. The list shows a part of the results.
# Biological target: NAD-dependent deacetylase Sirtuin 1 (human, UniProt Q96EB6)
# Assay: primary screen, delta tm
# Design: single well (n = 1, as 'the same TSA')
# Conditions: 10 µM
row,Compound,TSA(with NAD+) / Primary screening (TSA) / delta Tm (K)
1,Cc1c(O)ccc2c(CN3CCCC3c3ccc[nH]3)cc(=O)oc12 (stereo not shown),0.09
2,Cc1cc(C#N)ccc1S(=O)(=O)N1CC[C@H](N)C1,-0.05
3,CCOCc1c(C(=O)Nc2ccc(N3CCN(Cc4ccccc4)CC3)cc2)oc2ccccc12,0.06
4,COc1ccc(-c2csc3nc(C)nc(N4CCN(CC(=O)NC5CC5)CC4)c23)cc1OC,0.06
5,Cc1ccccc1SCC(=O)NC1CCCCNC1=O (stereo not shown),-0.08
6,O=C(CSc1nc2ccccc2o1)N(Cc1ccccc1)c1nc2c(s1)CCCC2,0.16
7,CC(C(=O)Nc1ccc(C(N)=O)cc1)N1CCN(CCOc2ccccc2)CC1 (stereo not shown),-0.23
8,Cc1no[n+]([O-])c1COc1cccc(C=C2C(=O)NC(=S)NC2=O)c1,-0.04
9,CCc1ccc(CNC(=O)N2CCOC(C)(c3cnn(C)c3)C2)cc1 (stereo not shown),-0.01
10,O=c1cc(CSc2ncc(C(F)(F)F)cc2Cl)nc2ccccn12,-0.23
11,CC(Oc1ccc(-c2nc3ccccc3s2)cc1)C(=O)NCc1ccco1 (stereo not shown),-0.16
12,O=C(O)CCCc1ccc2c(c1)-c1ccccc1C2,0.06
13,Cc1nc(-n2ccnc2)c2cnn(-c3cccc(Cl)c3)c2n1,-0.11
14,NC(=O)c1cc(NC(=O)c2ccc(NC(=O)NC3CC3)cc2)ccc1F,-0.01
15,O=c1n(CCCc2nc3ccccc3o2)nc2ccccn12,-0.05
16,CCOC(=O)c1c(NC(=O)C(C)OC(=O)c2cccc(S(=O)(=O)N3CCCC3)c2)sc2c1CCC(C)C2 (stereo not shown),-0.08
17,Cc1ccc(N(C)S(=O)(=O)c2cccc(C(=O)Nc3cc(S(C)(=O)=O)ccc3C)c2)cc1,-0.05
18,O=C(Nc1ccc(NC(=O)c2[nH]c3ccccc3c2Cl)cc1)NC1CC1,0.16
19,COc1ccccc1CNC(=O)COC(=O)c1ccccc1SCC(=O)NC12CC3CC(CC(C3)C1)C2,-0.19
20,Clc1ncnc2c1nnn2-c1ccccc1,-0.09
21,NC(CC(=O)O)C(=O)O (stereo not shown),-0.03
22,O=c1scnn1Cc1ncn(-c2ccccc2)n1,-0.09
23,CC(NC(=O)c1ccc2c(c1)CCC2)c1ncc[nH]1 (stereo not shown),-0.16

# Three records picked at random from those above, as already listed:
row,Compound,TSA(with NAD+) / Primary screening (TSA) / delta Tm (K)
16,CCOC(=O)c1c(NC(=O)C(C)OC(=O)c2cccc(S(=O)(=O)N3CCCC3)c2)sc2c1CCC(C)C2 (stereo not shown),-0.08
12,O=C(O)CCCc1ccc2c(c1)-c1ccccc1C2,0.06
7,CC(C(=O)Nc1ccc(C(N)=O)cc1)N1CCN(CCOc2ccccc2)CC1 (stereo not shown),-0.23

# Additional records.

row,Compound,TSA(with NAD+) / Primary screening (TSA) / delta Tm (K)
1,Cc1ccc(C=C2C(=O)NC(=S)NC2=O)o1,-0.19
2,Cn1c(=O)[nH]c(=O)c2nc(CC(O)c3cc4ccccc4o3)c(O)nc21 (stereo not shown),-0.22
3,Cc1cccn2c(=O)cc(COc3cccc4c3CCCC4O)nc12 (stereo not shown),-0.13
4,Cc1ccc(C)c(OCCSc2nnc(-c3cccnc3)n2N)c1,-0.04
5,COc1ccc(NC(=O)c2cccc(C(N)=O)c2)cc1OCc1cccnc1,-0.26
6,CC(N)CCCCN (stereo not shown),-0.26
7,CN(CC1COc2ccccc2O1)C(=O)CSc1nnc(-c2ccccc2Cl)n1C1CCCC1 (stereo not shown),0.06
8,Cn1ccnc1SCc1c(C(=O)O)oc2ccccc12,-0.01
9,CN(c1ccccc1)S(=O)(=O)c1cccc(C(=O)OCc2ccccc2C#N)c1,-0.11
10,Cc1ccc(-c2csc3ncn(CC(=O)NC(=O)Nc4ccc5c(c4)OCCO5)c(=O)c23)s1,0.17
11,CC(=O)NC12CC3CC(C1)CC(C(=O)Oc1ccc(N(C)S(=O)(=O)c4cc(C)ccc4C)cc1)(C3)C2,-0.18
12,COc1ccccc1CNC(=O)C(Sc1ccccc1)c1ccccc1 (stereo not shown),-0.01
13,NC(=O)C1CCN(c2nc(-c3cccnc3)nc3sc4c(c23)CCCC4)CC1,0.48
14,CCCCC(=O)OCC(=O)NCCc1ccc(S(N)(=O)=O)cc1,-0.02
15,Cc1cc(C=C2C(=O)NC(=S)NC2=O)c(C)n1-c1cccc(F)c1,-0.46
16,COc1cccc(C=C2C(=O)NC(=S)NC2=O)c1,-0.01
17,CC(=O)c1cccc(NC(=O)C(C)OC(=O)c2ccc(OCC(=O)N3C(C)CCCC3C)cc2)c1 (stereo not shown),0.15
18,Cc1cc(C)nc(SCc2ccccc2C(=O)N2CCN(CC(=O)Nc3cccc(F)c3)CC2)n1,-0.04
19,CC(=O)Nc1ccc(CC(=O)NCC(c2ccccc2)N(C)C)cc1 (stereo not shown),0.06
20,CC1CCc2ccccc2N1C(=O)CSc1n[nH]c2nc3ccccc3n12 (stereo not shown),-0.06
21,Oc1ccc2ccccc2c1/C=N/c1ccc(F)c(F)c1,-0.06
22,CC(NC(=O)c1occc1-c1ccc(F)cc1)c1ccc2c(c1)CCC(=O)N2 (stereo not shown),-0.11
23,Cc1cc(C)c2cc(C(=O)N3CCC(C(N)=O)CC3)[nH]c2c1,-0.33
